Measurements as given in PubChem BioAssay AID2685 (National Center for Advancing Translational Sciences (NCATS), 2010).
Some of the results follow. These are further read-outs of the screen, such as a control signal, another cell line or another target. No call is given for them. Most of these compounds were active or inconclusive in the main read-out, so they are no random draw. Potencies come from curve fits of mixed quality, noted in brackets.

Assay: qHTS Assay for Lipid Storage Modulators in Drosophila S3 Cells;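 as to cell number change: cells counted by Cell Tracker Red CMTPX staining in the red channel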
Details: BODIPY lipid droplet fluorescence, 18-24 h; for cell number change: measured here: cell count max response, cells fed with added oleic acid
Summary of the method: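 Drosophila S3 cells got compounds at several concentrations plus oleic acid (400 uM solution). Laser-scanning cytometry with 488 nm excitation read lipid droplets at 500-530 nm and cells at 575-640 nm. Percent activity was relative to 20 uM Triacsin C.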

[1] = measured here: lipid fluorescence (Fed channel) AC50, cells fed with added oleic acid
[2] = measured here: cell number channel AC50, cells fed with added oleic acid

Row | Structure (SMILES) | cell number change [%] | AC50 [1] | AC50 [2]
1 | Cc1nnc(N2C(=O)C(=O)/C(=C(/O)c3ccc4c(c3)OCCO4)C2c2ccc([N+](=O)[O-])cc2)s1 (stereo not given) | -20.4 |  | 
2 | Cc1ccc(OCC(=O)Nc2ccc(NC(=O)c3ccco3)cc2)c(C)c1 | 28.6 | 3.26 µM [falling, full curve] | 
3 | O=C1C=C(c2ccccc2)C(O)(c2ccccc2)C1 (stereo not given) | -15.3 | 4.61 µM [falling, full curve] | 
4 | Cc1noc(C)c1-c1nnc(-c2ccc(OC(F)(F)F)cc2)o1 | 25.8 | 5.8 µM [rising, full curve, poor fit] | 
5 | COc1cccc(/C=C/C(=O)N2CCN(S(=O)(=O)c3ccccc3)CC2)c1OC | -48.4 | 23.1 µM [falling, partial curve] | 20.6 µM [falling, partial curve]
6 | COC(=O)C(NNc1ccccc1)(NC(=O)c1ccc(F)cc1)C(F)(F)F (stereo not given) | 49 |  | 29.1 µM [rising, single point]
7 | CCCCCNCc1ccc(Cl)cc1 | 23.5 | 1.64 µM [falling, partial curve] | 
8 | Cc1ccc(S(=O)(=O)N2CCCCC2)cc1NC(=O)c1ccc(Cl)nc1 | -19.8 | 4.61 µM [rising, full curve] | 
9 | CC(=O)N1CCCc2cc(S(=O)(=O)N3CCCC(C(=O)Nc4cccc(C)c4)C3)ccc21 (stereo not given) | -11 |  | 
10 | COc1cc(/C=C2\COC/C(=C\c3cc(OC)c(OC)c(OC)c3)C2=O)cc(OC)c1OC | -65.4 | 0.116 µM [falling, full curve, poor fit] | 5.17 µM [falling, full curve, poor fit]
11 | COc1cccc(C(=O)Nc2ccncc2)c1 | 5.33 |  | 
12 | CCOC(=O)c1cc2sccc2n1CC(=O)OC(C)C | -25.5 |  | 
13 | Cc1nc2ccccc2c2oc(C(=O)NCc3ccc4c(c3)OCO4)cc12 | 34.7 | 6.51 µM [rising, partial curve] | 29.1 µM [rising, single point]
14 | CCOc1ccc(Cn2nnc(C(=O)Nc3cc(OC)cc(OC)c3)c2N)cc1 | 5.57 | 7.31 µM [rising, partial curve] | 
15 | Cc1[nH]n(-c2ccccc2)c(=O)c1N=Nc1ccc(Cl)cc1 |  | 16.4 µM [falling, single point] | 
16 | CC(CNC(=O)C(C)(C)C)NC(=O)C(C)(C)C (stereo not given) | -11.9 | 0.231 µM [falling, full curve] | 

A draw from above in order of count of non-hydrogen atoms, descending:
Row | Structure (SMILES) | cell number change [%] | AC50 [1] | AC50 [2]
10 | COc1cc(/C=C2\COC/C(=C\c3cc(OC)c(OC)c(OC)c3)C2=O)cc(OC)c1OC | -65.4 | 0.116 µM [falling, full curve, poor fit] | 5.17 µM [falling, full curve, poor fit]
12 | CCOC(=O)c1cc2sccc2n1CC(=O)OC(C)C | -25.5 |  | 
11 | COc1cccc(C(=O)Nc2ccncc2)c1 | 5.33 |  | 

Additional structures follow.

Row | Structure (SMILES) | cell number change [%] | AC50 [1] | AC50 [2]
17 | C=CCOc1ccc(CN(C)C(=O)C2CCCO2)cc1 (stereo not given) | 6.67 |  | 
18 | Cc1nc2c(C(=O)N3CCCC3)cnn2c(C)c1Cc1c(F)cccc1Cl |  |  | 3.26 µM [rising, partial curve]
19 | COc1cc2[nH]c(=S)n(Cc3ccco3)c(=O)c2cc1OC |  | 0.0731 µM [rising, full curve, poor fit] | 
20 | O=C(c1ccco1)N1CCN(C(=O)C2CCCc3c2[nH]c2ccc(Cl)cc32)CC1 (stereo not given) | 11.8 |  | 
21 | CCCOC(=O)C(C)n1cnc2scc(-c3ccc(C)cc3)c2c1=O (stereo not given) | -32.8 | 23.1 µM [rising, single point] | 13 µM [falling, single point]
22 | Cc1ccn2c(=O)nc(SCC(=O)Nc3ccc4c(c3)OCO4)nc2c1 |  |  | 0.517 µM [rising, full curve]
23 | CSc1ncccc1C(=O)Nc1cc(C)ccn1 | 8.49 | 0.411 µM [rising, full curve] | 0.651 µM [rising, full curve, poor fit]
24 | CCC(=O)N(CCc1ccccc1)Cc1cc2cc(C)ccc2[nH]c1=O | 21.6 | 6.51 µM [rising, single point] | 
25 | CCCCC(C)(O)C/C=C/[C@H]1[C@H](O)CC(=O)[C@@H]1CCCCCCC(=O)OC (stereo not given in full) |  | 13 µM [falling, partial curve] | 
26 | FC(F)(F)c1nnc(-c2ccccc2)nc1Oc1ccc(Cl)cc1Cl | -67.9 |  | 18.4 µM [falling, single point]
27 | O=C(CN1C(=O)C2CC=CCC2C1=O)Nc1nc2ccccc2s1 (stereo not given) | -22.3 | 0.411 µM [falling, full curve, poor fit] | 
28 | O=[N+]([O-])c1ccc(OCc2cnc(Cl)s2)c([N+](=O)[O-])c1 | 28.1 | 0.461 µM [falling, single point] | 
29 | Cc1ccccc1N1C(=O)CC(c2c[nH]c3ccccc23)C1=O (stereo not given) | -26.4 | 29.1 µM [falling, single point] | 
30 | O=C(O)CCC(CNS(=O)(=O)c1ccccc1)C(F)(F)F (stereo not given) | 28.8 |  | 
31 | COC(=O)c1cc(S(=O)(=O)NCC2CCN(CCc3ccc(OC)cc3)CC2)cn1C | 6.12 | 0.0058 µM [falling, full curve, poor fit] | 
